Laboratory results published in paper PMC12072422.
No constants are given. Whether binding was seen depends on the method and setting. Binding seen in cells or lysates may run through a third protein. Some results given as binding are weak or reduced against the parent protein; the word gives no strength. Sequences can lack the tags named with a protein.

The chains behind the UniProt entries cited, without tags or fusion partners.
UniProt Q38998: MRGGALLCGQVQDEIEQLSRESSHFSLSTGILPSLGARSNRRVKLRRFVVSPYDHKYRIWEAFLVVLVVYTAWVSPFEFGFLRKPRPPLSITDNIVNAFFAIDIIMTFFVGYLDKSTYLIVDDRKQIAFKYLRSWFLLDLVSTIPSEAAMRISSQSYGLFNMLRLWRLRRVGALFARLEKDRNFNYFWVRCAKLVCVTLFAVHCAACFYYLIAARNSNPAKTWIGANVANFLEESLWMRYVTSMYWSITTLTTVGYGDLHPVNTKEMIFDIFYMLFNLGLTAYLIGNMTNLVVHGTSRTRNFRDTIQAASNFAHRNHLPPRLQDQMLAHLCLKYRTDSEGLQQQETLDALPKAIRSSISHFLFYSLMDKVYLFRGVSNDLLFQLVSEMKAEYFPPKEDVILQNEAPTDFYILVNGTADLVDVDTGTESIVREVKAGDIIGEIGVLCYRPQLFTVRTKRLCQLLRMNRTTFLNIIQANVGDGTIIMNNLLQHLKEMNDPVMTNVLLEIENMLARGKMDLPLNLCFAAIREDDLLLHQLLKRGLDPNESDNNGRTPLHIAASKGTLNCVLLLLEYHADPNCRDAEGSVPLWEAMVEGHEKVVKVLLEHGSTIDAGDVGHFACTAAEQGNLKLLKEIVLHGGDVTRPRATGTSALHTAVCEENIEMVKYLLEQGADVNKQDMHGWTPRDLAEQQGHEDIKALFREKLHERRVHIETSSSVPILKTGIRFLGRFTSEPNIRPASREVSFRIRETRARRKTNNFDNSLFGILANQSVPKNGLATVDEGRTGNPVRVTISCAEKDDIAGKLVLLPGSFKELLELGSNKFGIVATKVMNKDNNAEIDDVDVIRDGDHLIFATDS

Biological target: T1, AtCIPK23 (luciferase fragment fusion) (Arabidopsis thaliana (by the prefix At)) (UniProt Q93VD3)
T1 sequence: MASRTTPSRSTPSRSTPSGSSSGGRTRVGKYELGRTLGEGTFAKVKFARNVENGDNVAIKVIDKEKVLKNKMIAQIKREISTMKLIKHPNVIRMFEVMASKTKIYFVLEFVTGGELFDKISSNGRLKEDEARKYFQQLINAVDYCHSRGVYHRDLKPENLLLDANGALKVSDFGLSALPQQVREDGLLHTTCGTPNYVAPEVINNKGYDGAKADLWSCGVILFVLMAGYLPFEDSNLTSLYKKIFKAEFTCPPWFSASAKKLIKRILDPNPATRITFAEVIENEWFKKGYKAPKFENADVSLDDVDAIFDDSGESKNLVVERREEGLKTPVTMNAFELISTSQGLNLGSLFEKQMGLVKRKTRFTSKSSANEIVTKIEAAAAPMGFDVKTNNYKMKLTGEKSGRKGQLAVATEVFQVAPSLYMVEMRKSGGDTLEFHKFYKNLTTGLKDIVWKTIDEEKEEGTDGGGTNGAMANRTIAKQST
Assay: split reporter; luciferase complementation (BiLC; nLUC and cLUC fusions) in Nicotiana benthamiana leaves infiltrated with Agrobacterium GV3101, 24 h in the dark at 25 °C, chemiluminescence imaging

binding: binds
Substance: AtAKT1 (luciferase fragment fusion) (from UniProt Q38998 1-857)
